The target in this assay is GFP-tagged RBMX (RNA binding motif protein encoded on the X chromosome) (UniProt P38159). Nature of the assay: co-IP; anti-GFP antibody precipitates ectopically expressed GFP-tagged RBMX from 293T cells in RNase-free condition; endogenous ZCCHC8 detected by western blot in half of the eluate.

Protein sequences, listed by entry. Tags and fused reporters are not part of them.
UniProt P38159: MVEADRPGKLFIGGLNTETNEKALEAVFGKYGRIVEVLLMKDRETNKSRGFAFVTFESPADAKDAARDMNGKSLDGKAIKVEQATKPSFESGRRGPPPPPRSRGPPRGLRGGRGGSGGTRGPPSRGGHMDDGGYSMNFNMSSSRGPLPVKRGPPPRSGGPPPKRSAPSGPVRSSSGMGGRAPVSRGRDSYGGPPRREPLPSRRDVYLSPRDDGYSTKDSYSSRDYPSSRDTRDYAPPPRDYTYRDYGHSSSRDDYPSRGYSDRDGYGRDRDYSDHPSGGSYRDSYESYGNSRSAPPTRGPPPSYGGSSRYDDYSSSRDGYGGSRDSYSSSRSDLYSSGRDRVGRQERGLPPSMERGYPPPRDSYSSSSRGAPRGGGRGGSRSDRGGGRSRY

The record followed here is paper PMC10529574.

Results are given in words; binding and its absence hold for the method and conditions named. In cells and extracts the contact can be indirect. Some binding calls cover weakened binding; strength is not graded here.

B1: ZCCHC8 (nuclear exosome targeting protein) (protein, UniProt Q6NZY4 1-707)
chain: MAAEVYFGDLELFEPFDHPEESIPKPVHTRFKDDDGDEEDENGVGDAELRERLRQCEETIEQLRAENQELKRKLNILTRPSGILVNDTKLDGPILQILFMNNAISKQYHQEIEEFVSNLVKRFEEQQKNDVEKTSFNLLPQPSSIVLEEDHKVEESCAIKNNKEAFSVVGSVLYFTNFCLDKLGQPLLNENPQLSEGWEIPKYHQVFSHIVSLEGQEIQVKAKRPKPHCFNCGSEEHQMKDCPMPRNAARISEKRKEYMDACGEANNQNFQQRYHAEEVEERFGRFKPGVISEELQDALGVTDKSLPPFIYRMRQLGYPPGWLKEAELENSGLALYDGKDGTDGETEVGEIQQNKSVTYDLSKLVNYPGFNISTPRGIPDEWRIFGSIPMQACQQKDVFANYLTSNFQAPGVKSGNKRSSSHSSPGSPKKQKNESNSAGSPADMELDSDMEVPHGSQSSESFQFQPPLPPDTPPLPRGTPPPVFTPPLPKGTPPLTPSDSPQTRTASGAVDEDALTLEELEEQQRRIWAALEQAESVNSDSDVPVDTPLTGNSVASSPCPNELDLPVPEGKTSEKQTLDEPEVPEIFTKKSEAGHASSPDSEVTSLCQKEKAELAPVNTEGALLDNGSVVPNCDISNGGSQKLFPADTSPSTATKIHSPIPDMSKFATGITPFEFENMAESTGMYLRIRSLLKNSPRNQQKNKKASE
With B1, the binding entry is reported as “binds”.
